Article PMC10665427

Each substance was assayed against T1, Lon^TRAP-Twin-Strep-tag (Lon S674A active-site mutant) (C. crescentus) (UniProt B8GX12) (assay: affinity purification with mass spectrometry; Twin-Strep-tagged Lon^TRAP (bait) purified on Strep-TactinXT from lysates of Δlon C. crescentus after 2 h xylose; elution fractions TMT-labelled and analysed by LC-MS; compared with Lon^WT and a no-Lon control; two replicates).
T1 sequence: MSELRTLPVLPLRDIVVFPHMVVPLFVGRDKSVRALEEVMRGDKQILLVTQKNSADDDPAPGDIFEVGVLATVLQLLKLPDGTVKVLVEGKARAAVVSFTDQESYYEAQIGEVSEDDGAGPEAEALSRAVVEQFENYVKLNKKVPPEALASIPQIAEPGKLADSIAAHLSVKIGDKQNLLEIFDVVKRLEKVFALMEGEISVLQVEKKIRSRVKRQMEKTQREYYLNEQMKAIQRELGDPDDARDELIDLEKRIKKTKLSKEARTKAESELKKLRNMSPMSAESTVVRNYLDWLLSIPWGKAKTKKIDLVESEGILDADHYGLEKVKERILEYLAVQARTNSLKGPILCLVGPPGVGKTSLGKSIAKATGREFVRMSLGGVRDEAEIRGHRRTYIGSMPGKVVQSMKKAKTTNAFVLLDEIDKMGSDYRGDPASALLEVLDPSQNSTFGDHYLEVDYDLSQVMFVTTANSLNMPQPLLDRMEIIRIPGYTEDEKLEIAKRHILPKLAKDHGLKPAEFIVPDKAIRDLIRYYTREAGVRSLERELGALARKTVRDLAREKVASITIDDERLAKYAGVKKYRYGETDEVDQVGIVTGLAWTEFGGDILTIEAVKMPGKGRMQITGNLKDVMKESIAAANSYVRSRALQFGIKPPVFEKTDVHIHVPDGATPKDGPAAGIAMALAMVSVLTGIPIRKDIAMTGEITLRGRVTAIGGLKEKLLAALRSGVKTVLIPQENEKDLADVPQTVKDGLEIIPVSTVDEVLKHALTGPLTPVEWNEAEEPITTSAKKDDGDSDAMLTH

binding, binds:
FliK
FliX
LarA (CCNA_03707), endogenous
StaR

These are yes or no findings as the source states them, for the method shown. In cells and extracts the contact can be indirect. These calls come from enrichment with a bait or labelling near it, and not all partners need be listed. Where a sequence is shown, tags or fusion partners need not be part of it.
